Results published in the supplement of paper PMC11732987, “Enantioselective OTUD7B fragment discovery through chemoproteomics screening and high-throughput optimisation” (Communications Chemistry, 2025).
The other results are listed elsewhere or left out. The data scatter; read single values as rough.

Chains of the proteins cited; added tags and fusions are not shown. Lines headed by an entry give the natural chain unless they say otherwise; changes in a name come on top. Residues count along the entry.
UniProt P50579, 111-131: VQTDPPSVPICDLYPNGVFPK
UniProt Q9H000: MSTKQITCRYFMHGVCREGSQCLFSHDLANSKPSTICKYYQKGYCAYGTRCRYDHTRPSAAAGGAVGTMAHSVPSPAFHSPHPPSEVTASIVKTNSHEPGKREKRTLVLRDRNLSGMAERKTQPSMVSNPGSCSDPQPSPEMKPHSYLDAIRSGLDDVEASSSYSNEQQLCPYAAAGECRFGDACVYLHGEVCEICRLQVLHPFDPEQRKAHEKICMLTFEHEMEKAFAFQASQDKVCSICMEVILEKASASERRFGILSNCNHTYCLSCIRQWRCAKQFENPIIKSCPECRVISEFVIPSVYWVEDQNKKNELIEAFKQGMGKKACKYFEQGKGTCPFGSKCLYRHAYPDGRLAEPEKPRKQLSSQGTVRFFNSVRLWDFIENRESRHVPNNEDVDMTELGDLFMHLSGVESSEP
UniProt Q9NVC6: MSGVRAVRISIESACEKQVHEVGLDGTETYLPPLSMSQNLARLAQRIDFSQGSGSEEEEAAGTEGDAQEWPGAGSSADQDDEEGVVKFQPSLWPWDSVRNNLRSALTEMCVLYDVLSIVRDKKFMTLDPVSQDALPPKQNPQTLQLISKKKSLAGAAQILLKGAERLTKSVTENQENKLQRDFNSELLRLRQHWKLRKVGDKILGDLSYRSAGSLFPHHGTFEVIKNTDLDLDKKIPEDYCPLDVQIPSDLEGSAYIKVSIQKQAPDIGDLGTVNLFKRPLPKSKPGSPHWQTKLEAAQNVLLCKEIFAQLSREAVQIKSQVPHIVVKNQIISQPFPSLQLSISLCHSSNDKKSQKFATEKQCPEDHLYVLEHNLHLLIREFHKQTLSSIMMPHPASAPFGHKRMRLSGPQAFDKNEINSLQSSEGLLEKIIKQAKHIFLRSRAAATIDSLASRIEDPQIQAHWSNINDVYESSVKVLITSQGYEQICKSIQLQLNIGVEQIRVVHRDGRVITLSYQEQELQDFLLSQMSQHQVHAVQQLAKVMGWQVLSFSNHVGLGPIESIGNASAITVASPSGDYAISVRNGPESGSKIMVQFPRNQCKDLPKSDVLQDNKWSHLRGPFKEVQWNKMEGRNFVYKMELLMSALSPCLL
UniProt Q9NXC5: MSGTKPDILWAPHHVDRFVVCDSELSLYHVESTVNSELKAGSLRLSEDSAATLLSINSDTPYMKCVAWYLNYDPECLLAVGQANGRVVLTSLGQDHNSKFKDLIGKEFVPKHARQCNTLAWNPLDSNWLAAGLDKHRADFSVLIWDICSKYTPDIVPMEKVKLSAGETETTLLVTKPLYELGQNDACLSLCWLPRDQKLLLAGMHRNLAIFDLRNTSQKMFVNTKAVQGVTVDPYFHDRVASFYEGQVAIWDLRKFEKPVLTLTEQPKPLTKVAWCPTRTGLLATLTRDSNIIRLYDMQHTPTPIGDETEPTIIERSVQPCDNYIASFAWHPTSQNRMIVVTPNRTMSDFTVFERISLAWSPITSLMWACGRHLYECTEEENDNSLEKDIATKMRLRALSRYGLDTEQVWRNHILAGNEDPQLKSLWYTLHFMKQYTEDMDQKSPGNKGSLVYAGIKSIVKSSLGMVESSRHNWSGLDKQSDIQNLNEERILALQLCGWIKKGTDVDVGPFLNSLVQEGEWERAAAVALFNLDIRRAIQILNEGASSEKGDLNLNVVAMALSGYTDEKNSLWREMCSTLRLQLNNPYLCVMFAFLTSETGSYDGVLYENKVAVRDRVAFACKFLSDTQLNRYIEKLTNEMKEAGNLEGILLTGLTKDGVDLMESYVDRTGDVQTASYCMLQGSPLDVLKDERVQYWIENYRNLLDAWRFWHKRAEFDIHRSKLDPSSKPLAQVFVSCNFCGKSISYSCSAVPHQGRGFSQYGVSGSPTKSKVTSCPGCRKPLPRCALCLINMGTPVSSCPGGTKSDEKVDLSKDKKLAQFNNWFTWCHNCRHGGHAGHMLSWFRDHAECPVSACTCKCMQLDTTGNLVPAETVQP
UniProt Q9UL63, whole entry, looked up: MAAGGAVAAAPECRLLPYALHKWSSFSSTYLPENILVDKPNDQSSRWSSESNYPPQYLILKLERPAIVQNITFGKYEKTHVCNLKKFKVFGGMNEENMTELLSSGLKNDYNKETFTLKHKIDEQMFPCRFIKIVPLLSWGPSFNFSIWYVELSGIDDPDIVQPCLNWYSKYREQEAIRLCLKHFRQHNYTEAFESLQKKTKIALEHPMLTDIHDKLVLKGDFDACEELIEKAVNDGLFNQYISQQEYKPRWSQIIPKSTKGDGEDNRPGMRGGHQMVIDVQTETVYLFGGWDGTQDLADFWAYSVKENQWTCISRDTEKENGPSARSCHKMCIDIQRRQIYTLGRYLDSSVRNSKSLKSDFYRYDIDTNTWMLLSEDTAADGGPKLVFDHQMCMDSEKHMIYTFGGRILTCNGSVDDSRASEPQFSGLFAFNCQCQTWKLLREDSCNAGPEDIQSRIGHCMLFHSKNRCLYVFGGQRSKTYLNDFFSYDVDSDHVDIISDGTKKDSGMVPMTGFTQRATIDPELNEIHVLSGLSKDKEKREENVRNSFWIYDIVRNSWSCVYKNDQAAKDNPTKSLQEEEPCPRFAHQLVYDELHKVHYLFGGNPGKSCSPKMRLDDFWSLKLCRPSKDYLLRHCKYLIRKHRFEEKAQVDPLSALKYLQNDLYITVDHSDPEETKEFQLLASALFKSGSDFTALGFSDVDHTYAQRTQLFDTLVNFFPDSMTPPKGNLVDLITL
UniProt Q96EN8: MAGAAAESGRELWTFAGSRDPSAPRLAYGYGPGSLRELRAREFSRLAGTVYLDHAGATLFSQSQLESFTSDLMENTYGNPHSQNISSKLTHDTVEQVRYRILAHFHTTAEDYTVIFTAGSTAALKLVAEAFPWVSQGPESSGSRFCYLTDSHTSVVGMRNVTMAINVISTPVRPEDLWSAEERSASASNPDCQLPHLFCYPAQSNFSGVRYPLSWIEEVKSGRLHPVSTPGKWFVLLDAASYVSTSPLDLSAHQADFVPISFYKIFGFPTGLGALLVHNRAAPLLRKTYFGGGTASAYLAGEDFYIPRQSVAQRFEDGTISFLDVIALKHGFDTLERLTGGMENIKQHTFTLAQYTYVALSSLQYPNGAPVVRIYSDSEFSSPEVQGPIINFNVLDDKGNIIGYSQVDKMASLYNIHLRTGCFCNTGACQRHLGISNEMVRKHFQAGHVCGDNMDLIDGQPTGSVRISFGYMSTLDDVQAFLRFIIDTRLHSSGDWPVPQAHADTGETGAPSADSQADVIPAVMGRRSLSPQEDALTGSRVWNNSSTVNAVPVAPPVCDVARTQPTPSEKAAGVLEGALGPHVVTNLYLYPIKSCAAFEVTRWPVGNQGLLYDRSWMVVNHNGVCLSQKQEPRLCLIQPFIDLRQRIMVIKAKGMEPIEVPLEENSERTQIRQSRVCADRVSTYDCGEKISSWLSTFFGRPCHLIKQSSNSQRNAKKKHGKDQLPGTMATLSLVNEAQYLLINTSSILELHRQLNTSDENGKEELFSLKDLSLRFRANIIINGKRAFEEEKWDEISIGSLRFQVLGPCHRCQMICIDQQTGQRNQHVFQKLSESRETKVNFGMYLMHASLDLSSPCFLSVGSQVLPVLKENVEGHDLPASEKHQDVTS
UniProt Q9Y4C4: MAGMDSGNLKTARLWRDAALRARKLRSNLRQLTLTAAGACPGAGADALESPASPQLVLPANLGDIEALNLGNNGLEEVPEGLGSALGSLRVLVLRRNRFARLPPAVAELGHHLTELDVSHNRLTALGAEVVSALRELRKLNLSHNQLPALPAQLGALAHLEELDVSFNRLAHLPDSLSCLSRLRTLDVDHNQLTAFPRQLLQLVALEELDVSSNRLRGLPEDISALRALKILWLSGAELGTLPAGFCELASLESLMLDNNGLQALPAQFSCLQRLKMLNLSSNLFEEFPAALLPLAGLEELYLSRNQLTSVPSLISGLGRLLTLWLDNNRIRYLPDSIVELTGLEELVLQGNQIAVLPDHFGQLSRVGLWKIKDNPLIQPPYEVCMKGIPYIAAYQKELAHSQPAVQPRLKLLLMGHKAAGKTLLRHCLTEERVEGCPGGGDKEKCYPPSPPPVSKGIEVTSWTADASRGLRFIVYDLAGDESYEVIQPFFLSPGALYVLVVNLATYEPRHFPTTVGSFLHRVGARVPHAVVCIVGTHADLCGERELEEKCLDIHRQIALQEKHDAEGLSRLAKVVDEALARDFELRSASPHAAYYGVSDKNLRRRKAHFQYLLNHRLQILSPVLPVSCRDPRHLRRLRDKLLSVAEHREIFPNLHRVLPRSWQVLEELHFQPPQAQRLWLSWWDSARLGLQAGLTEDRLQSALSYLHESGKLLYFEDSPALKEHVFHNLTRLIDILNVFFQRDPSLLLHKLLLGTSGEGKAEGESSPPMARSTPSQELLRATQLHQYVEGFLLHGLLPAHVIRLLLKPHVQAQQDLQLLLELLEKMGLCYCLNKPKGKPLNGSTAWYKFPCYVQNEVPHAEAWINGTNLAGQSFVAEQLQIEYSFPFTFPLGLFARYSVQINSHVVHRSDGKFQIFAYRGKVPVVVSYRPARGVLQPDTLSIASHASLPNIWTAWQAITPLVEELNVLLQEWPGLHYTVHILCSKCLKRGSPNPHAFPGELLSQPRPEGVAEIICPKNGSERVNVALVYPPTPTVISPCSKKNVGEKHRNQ
UniProt P40925: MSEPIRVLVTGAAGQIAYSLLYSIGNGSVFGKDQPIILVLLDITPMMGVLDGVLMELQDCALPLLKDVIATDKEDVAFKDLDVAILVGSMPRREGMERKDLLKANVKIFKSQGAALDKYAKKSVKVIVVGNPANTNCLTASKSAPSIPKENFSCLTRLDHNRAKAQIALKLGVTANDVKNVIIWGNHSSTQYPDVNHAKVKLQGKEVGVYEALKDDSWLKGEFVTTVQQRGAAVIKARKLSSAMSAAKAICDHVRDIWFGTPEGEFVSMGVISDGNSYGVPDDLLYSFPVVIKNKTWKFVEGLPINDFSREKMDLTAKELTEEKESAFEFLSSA
UniProt Q9BU76: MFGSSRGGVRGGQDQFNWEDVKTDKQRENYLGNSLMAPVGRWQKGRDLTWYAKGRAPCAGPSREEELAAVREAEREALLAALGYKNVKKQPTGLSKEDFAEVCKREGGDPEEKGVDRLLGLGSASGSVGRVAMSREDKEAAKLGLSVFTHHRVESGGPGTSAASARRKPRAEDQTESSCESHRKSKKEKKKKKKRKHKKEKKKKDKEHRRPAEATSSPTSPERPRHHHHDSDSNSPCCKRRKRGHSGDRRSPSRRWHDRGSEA
UniProt Q9BWT6: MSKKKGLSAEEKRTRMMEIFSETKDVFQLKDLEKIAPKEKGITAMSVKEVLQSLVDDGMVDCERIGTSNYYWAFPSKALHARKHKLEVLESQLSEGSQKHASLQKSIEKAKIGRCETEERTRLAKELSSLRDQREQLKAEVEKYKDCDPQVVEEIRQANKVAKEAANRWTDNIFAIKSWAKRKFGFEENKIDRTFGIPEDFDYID
UniProt P26572: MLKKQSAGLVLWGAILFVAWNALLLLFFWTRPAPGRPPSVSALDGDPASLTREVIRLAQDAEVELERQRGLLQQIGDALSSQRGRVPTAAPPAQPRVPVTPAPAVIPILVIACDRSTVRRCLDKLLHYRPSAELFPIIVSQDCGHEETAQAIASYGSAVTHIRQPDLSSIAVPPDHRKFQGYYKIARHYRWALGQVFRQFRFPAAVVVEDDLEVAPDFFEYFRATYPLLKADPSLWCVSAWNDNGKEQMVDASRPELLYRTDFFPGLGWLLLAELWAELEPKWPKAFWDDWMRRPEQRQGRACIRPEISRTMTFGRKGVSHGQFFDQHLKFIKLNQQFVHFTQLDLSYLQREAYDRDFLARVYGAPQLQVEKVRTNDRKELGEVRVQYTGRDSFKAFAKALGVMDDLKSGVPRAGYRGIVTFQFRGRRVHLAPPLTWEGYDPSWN
UniProt Q9BPX6: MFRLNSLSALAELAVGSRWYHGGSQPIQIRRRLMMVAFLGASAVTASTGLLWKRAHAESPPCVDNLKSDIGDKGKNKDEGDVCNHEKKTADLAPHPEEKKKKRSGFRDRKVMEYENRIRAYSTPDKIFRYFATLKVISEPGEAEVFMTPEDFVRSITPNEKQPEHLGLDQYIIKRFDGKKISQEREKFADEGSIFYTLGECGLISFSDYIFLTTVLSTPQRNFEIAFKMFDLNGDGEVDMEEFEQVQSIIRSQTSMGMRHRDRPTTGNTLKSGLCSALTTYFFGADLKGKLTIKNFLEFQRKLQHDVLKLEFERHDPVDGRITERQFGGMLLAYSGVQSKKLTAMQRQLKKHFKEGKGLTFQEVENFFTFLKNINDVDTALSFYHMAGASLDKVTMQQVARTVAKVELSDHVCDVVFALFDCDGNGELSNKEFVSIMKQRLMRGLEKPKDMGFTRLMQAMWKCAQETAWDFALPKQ

Compound: ClCC(=O)N[C@H]1CCCc2ccccc12
Assay: log2 mean competition ratio of IA-DTB cysteine labelling (DMSO/compound) (log2 ratio); higher = stronger cysteine engagement by compound
Conditions: 50 µM; treatment time: 4 h; cell line lysate: HEK293T
Procedure: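 IA-DTB competitive cysteine chemoproteomics in HEK293T RIPA lysate. Lysates were treated with compound 29 or 30 at 50 or 200 µM for 4 h, then IA-DTB (500 µM, 1 h), trypsin-digested, NeutrAvidin-enriched and analysed by diaPASEF. Competition ratio = intensity DMSO / intensity compound (n=4 treated, n=64 DMSO); binding: mean log2 CR ≥ 1 and p ≤ 0.05 plus QC filters. Target is the cysteine site.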

Row | Target | log2 mean competition ratio
1 | METAP2 C121 (UniProt P50579) | -0.439
2 | MKRN2 C337 (UniProt Q9H000) | 0.186
3 | MGA C1295 (UniProt Q8IWI9) | -0.293
4 | MED23 C222 (UniProt Q9ULK4) | 0.311
5 | MED17 C15 (UniProt Q9NVC6) | 0.0965
6 | MIOS C748 (UniProt Q9NXC5) | 0.113
7 | MIDEAS C502, A0A1C7CYX1 | 0.152
8 | MIDEAS C442, A0A1C7CYX1 | -0.000751
9 | MPP2 C334 | 0.139
10 | MKLN1 C560 (UniProt Q9UL63) | -0.0383
11 | MOCOS C686 (UniProt Q96EN8) | -0.0717
12 | MFHAS1 C385 (UniProt Q9Y4C4) | -0.136
13 | MDH1 C137 (UniProt P40925) | 0.097
14 | MMTAG2 C103 (UniProt Q9BU76) | -0.221
15 | MIS18BP1 C206 | -0.109
16 | MND1 C62 (UniProt Q9BWT6) | -0.0499
17 | MGAT1 C303 (UniProt P26572) | -0.376
18 | MICU1 C83 (UniProt Q9BPX6) | -0.0351
19 | MED17 C488 (UniProt Q9NVC6) | -0.145
20 | MIPEP C142 (UniProt Q99797) | -0.364

Same assay, conditions: 200 µM; treatment time: 4 h; cell line lysate: HEK293T

Row | Target | log2 mean competition ratio
21 | METAP2 C121 (UniProt P50579) | 0.0342
22 | MKRN2 C337 (UniProt Q9H000) | -0.0805
23 | MGA C1295 (UniProt Q8IWI9) | -0.151
24 | MED23 C222 (UniProt Q9ULK4) | 0.187
25 | MED17 C15 (UniProt Q9NVC6) | -0.0945
26 | MIOS C748 (UniProt Q9NXC5) | -0.00929
27 | MIDEAS C502, A0A1C7CYX1 | -0.0459
28 | MIDEAS C442, A0A1C7CYX1 | 0.209
29 | MPP2 C334 | -0.0444
30 | MKLN1 C560 (UniProt Q9UL63) | 0.0526
31 | MOCOS C686 (UniProt Q96EN8) | 0.4
32 | MFHAS1 C385 (UniProt Q9Y4C4) | 0.136
33 | MDH1 C137 (UniProt P40925) | 0.645
34 | MMTAG2 C103 (UniProt Q9BU76) | 0.0437
35 | MIS18BP1 C206 | 0.133
36 | MND1 C62 (UniProt Q9BWT6) | 0.21
37 | MGAT1 C303 (UniProt P26572) | 0.0202
38 | MICU1 C83 (UniProt Q9BPX6) | 0.146
39 | MED17 C488 (UniProt Q9NVC6) | 0.0186
40 | MIPEP C142 (UniProt Q99797) | 0.0781
